Laboratory results published in doi:10.1101/2025.04.22.650084.
Where two headings read alike, the source gives them in different places. No constants are given. Whether binding was seen depends on the method and setting. For part of these data: Binding seen in cells or lysates may run through a third protein. Some entries that bind do so weakly or less than the wild type. Where a sequence is shown, tags or fusion partners need not be part of it. Each block holds one molecule with its values, some of them ahead of it.

Chains of the proteins cited; added tags and fusions are not shown.
UniProt Q9LXW7: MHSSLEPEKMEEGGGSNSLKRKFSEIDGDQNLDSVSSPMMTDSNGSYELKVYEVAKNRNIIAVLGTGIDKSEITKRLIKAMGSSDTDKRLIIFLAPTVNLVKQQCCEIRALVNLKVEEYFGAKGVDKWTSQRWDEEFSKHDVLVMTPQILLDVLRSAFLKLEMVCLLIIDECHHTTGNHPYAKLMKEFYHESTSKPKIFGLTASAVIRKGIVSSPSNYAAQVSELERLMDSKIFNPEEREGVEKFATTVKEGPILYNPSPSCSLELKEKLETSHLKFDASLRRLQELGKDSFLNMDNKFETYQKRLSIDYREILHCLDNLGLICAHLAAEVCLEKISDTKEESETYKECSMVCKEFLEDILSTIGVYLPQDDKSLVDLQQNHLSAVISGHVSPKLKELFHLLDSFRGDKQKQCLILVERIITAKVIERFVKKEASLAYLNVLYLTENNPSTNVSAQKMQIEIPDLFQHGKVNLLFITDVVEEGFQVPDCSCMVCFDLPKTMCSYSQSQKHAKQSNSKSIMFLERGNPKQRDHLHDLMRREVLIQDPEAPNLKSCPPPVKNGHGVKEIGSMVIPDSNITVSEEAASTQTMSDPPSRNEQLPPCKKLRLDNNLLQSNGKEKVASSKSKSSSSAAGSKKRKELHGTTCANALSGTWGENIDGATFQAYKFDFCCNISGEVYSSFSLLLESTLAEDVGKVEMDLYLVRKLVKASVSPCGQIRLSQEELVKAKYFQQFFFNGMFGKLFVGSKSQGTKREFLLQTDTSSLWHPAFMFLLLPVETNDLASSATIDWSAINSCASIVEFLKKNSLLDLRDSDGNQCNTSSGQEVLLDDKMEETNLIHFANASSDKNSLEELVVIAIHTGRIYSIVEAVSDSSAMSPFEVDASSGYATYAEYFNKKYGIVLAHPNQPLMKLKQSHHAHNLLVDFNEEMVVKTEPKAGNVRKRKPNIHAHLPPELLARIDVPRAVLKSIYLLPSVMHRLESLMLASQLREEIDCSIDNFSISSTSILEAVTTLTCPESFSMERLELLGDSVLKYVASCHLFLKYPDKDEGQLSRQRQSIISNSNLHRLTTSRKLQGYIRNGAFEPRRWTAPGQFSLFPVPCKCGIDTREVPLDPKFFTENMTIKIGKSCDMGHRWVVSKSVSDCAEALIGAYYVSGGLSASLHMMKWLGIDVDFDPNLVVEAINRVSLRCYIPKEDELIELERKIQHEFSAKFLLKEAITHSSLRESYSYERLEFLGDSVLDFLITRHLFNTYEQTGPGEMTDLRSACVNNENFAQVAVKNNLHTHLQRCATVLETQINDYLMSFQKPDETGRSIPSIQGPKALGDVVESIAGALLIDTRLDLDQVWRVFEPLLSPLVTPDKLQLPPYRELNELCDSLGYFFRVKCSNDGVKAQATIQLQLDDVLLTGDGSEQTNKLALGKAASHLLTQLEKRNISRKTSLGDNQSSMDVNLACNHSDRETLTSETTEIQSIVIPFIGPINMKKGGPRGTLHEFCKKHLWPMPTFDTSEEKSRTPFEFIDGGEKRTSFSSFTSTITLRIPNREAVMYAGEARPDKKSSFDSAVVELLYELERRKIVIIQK
UniProt P84634: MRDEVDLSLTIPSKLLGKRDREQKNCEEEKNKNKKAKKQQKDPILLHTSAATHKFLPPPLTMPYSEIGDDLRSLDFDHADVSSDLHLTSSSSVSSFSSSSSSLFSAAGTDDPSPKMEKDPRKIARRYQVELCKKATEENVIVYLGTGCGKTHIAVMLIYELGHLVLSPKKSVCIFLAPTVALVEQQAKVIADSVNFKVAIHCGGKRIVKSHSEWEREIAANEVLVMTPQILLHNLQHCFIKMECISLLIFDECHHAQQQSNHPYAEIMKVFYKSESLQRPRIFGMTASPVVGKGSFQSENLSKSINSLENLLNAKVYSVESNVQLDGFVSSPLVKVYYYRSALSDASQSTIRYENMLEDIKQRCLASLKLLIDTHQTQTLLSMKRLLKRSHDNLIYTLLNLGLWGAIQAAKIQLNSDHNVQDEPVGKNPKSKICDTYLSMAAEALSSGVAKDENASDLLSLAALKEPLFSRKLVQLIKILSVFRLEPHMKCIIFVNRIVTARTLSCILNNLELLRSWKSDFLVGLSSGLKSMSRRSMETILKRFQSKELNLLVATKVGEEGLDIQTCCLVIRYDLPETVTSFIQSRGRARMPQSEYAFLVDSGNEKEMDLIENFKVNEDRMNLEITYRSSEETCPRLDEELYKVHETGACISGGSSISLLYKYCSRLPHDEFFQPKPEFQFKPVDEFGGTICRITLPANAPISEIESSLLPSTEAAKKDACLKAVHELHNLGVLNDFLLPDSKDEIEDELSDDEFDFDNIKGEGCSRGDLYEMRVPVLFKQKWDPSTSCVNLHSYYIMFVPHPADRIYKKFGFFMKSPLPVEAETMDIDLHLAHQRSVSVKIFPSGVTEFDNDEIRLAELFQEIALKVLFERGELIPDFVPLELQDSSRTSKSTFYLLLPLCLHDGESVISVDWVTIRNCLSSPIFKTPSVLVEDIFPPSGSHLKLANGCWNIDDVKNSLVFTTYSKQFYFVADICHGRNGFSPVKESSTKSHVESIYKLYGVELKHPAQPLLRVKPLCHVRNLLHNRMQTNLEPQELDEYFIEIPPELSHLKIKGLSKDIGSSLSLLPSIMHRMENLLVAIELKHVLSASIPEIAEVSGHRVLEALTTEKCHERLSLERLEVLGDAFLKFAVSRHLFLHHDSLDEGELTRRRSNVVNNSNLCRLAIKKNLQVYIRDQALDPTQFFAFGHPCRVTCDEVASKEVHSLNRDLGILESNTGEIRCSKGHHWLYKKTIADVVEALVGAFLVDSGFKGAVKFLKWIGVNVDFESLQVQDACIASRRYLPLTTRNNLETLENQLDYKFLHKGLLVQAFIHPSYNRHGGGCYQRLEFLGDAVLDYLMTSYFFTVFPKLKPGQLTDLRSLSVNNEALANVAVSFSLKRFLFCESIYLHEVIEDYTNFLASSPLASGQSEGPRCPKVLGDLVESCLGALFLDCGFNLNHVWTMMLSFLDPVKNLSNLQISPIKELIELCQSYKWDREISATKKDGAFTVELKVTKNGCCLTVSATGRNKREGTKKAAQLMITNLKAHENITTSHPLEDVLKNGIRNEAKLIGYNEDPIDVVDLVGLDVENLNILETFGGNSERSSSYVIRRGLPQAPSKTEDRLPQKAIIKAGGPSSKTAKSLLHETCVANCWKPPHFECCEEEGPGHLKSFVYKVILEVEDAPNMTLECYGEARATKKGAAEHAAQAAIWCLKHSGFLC

Tests used:
[1] = biological target: T1, U1-70k (full-length, yeast two-hybrid fusion) (Arabidopsis thaliana) (UniProt Q42404); assay: two-hybrid
T1 sequence: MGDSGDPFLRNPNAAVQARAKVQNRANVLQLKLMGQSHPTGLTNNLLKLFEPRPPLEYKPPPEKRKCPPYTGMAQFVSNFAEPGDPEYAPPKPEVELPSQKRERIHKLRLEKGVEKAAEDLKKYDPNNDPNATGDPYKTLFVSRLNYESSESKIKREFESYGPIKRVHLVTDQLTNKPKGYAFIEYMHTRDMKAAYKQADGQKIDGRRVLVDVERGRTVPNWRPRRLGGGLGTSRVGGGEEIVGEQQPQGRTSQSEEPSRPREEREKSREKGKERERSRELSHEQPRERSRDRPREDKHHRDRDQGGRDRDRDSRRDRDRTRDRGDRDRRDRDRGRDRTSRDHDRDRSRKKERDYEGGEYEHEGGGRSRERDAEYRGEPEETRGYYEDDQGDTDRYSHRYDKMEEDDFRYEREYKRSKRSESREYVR

[2] = biological target: T1, U1-70k (full-length, yeast two-hybrid fusion) (Arabidopsis thaliana); assay: two-hybrid; remark: listed apart in the source
[3] = biological target: T2, SGS3 (Myc-tagged, immunoprecipitated with anti-Myc) (UniProt Q9LDX1); assay: co-IP
T2 sequence: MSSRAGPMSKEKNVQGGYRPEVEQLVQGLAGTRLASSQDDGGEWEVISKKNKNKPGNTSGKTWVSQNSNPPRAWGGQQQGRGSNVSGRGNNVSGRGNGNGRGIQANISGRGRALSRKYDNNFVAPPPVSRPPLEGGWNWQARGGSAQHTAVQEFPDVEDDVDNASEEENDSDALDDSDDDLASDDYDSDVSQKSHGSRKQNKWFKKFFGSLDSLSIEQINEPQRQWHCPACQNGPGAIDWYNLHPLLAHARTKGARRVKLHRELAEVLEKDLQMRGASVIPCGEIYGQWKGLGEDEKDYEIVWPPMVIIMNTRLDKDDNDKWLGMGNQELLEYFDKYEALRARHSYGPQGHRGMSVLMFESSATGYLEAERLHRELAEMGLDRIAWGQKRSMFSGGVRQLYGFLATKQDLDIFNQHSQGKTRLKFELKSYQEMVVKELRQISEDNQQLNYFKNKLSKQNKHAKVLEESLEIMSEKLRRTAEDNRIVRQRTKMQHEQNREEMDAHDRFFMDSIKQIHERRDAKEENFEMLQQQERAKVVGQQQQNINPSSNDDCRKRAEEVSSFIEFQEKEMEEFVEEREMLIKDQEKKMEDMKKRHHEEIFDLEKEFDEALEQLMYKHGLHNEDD

[4] = biological target: T3, cYFP-U1-70k (Arabidopsis thaliana) (UniProt Q42404); assay: split reporter
T3 sequence: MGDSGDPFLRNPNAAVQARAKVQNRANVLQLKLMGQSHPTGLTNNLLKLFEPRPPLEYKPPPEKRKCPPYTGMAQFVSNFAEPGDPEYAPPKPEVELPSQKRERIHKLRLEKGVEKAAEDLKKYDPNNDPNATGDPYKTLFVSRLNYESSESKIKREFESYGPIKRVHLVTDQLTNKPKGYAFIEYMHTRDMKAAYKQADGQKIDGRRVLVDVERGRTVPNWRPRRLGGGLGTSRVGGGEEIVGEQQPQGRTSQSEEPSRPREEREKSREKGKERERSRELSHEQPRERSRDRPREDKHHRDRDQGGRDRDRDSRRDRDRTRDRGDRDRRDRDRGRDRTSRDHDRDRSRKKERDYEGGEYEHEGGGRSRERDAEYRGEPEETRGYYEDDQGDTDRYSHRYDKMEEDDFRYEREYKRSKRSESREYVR

[5] = biological target: T3, cYFP-U1-70k (Arabidopsis thaliana); assay: split reporter; remark: listed apart in the source
[6] = biological target: T4, U1-70k (235-427aa) (yeast two-hybrid fusion) (Arabidopsis thaliana) (UniProt Q42404); assay: two-hybrid
T4 sequence: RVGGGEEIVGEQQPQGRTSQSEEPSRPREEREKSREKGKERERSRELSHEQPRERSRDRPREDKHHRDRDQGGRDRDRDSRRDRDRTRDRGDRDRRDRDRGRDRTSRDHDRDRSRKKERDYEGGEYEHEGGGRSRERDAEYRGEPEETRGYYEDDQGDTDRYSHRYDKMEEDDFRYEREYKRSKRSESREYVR

Molecule: DCL3 (yeast two-hybrid fusion) (from UniProt Q9LXW7 1-1580)
binding [1]: no binding

Molecule: DCL4 (yeast two-hybrid fusion) (from UniProt P84634 1-1702)
binding [1]: no binding

B1: U1-70k (full-length, yeast two-hybrid fusion) (protein, UniProt Q42404 1-427)
chain: MGDSGDPFLRNPNAAVQARAKVQNRANVLQLKLMGQSHPTGLTNNLLKLFEPRPPLEYKPPPEKRKCPPYTGMAQFVSNFAEPGDPEYAPPKPEVELPSQKRERIHKLRLEKGVEKAAEDLKKYDPNNDPNATGDPYKTLFVSRLNYESSESKIKREFESYGPIKRVHLVTDQLTNKPKGYAFIEYMHTRDMKAAYKQADGQKIDGRRVLVDVERGRTVPNWRPRRLGGGLGTSRVGGGEEIVGEQQPQGRTSQSEEPSRPREEREKSREKGKERERSRELSHEQPRERSRDRPREDKHHRDRDQGGRDRDRDSRRDRDRTRDRGDRDRRDRDRGRDRTSRDHDRDRSRKKERDYEGGEYEHEGGGRSRERDAEYRGEPEETRGYYEDDQGDTDRYSHRYDKMEEDDFRYEREYKRSKRSESREYVR
binding [2]: binds

B2: U1-70k (endogenous) (protein, UniProt Q42404 1-427)
chain: MGDSGDPFLRNPNAAVQARAKVQNRANVLQLKLMGQSHPTGLTNNLLKLFEPRPPLEYKPPPEKRKCPPYTGMAQFVSNFAEPGDPEYAPPKPEVELPSQKRERIHKLRLEKGVEKAAEDLKKYDPNNDPNATGDPYKTLFVSRLNYESSESKIKREFESYGPIKRVHLVTDQLTNKPKGYAFIEYMHTRDMKAAYKQADGQKIDGRRVLVDVERGRTVPNWRPRRLGGGLGTSRVGGGEEIVGEQQPQGRTSQSEEPSRPREEREKSREKGKERERSRELSHEQPRERSRDRPREDKHHRDRDQGGRDRDRDSRRDRDRTRDRGDRDRRDRDRGRDRTSRDHDRDRSRKKERDYEGGEYEHEGGGRSRERDAEYRGEPEETRGYYEDDQGDTDRYSHRYDKMEEDDFRYEREYKRSKRSESREYVR
binding [3]: binds

B5: U1-70k (235-427aa) (yeast two-hybrid fusion) (domain or fragment, UniProt Q42404 235-427)
chain: RVGGGEEIVGEQQPQGRTSQSEEPSRPREEREKSREKGKERERSRELSHEQPRERSRDRPREDKHHRDRDQGGRDRDRDSRRDRDRTRDRGDRDRRDRDRGRDRTSRDHDRDRSRKKERDYEGGEYEHEGGGRSRERDAEYRGEPEETRGYYEDDQGDTDRYSHRYDKMEEDDFRYEREYKRSKRSESREYVR
binding [6]: binds

The remaining lines, values ahead:

binding [4]: binds
binding [5]: binds
B3: nYFP-SGS3 (protein, UniProt Q9LDX1 1-625)
chain: MSSRAGPMSKEKNVQGGYRPEVEQLVQGLAGTRLASSQDDGGEWEVISKKNKNKPGNTSGKTWVSQNSNPPRAWGGQQQGRGSNVSGRGNNVSGRGNGNGRGIQANISGRGRALSRKYDNNFVAPPPVSRPPLEGGWNWQARGGSAQHTAVQEFPDVEDDVDNASEEENDSDALDDSDDDLASDDYDSDVSQKSHGSRKQNKWFKKFFGSLDSLSIEQINEPQRQWHCPACQNGPGAIDWYNLHPLLAHARTKGARRVKLHRELAEVLEKDLQMRGASVIPCGEIYGQWKGLGEDEKDYEIVWPPMVIIMNTRLDKDDNDKWLGMGNQELLEYFDKYEALRARHSYGPQGHRGMSVLMFESSATGYLEAERLHRELAEMGLDRIAWGQKRSMFSGGVRQLYGFLATKQDLDIFNQHSQGKTRLKFELKSYQEMVVKELRQISEDNQQLNYFKNKLSKQNKHAKVLEESLEIMSEKLRRTAEDNRIVRQRTKMQHEQNREEMDAHDRFFMDSIKQIHERRDAKEENFEMLQQQERAKVVGQQQQNINPSSNDDCRKRAEEVSSFIEFQEKEMEEFVEEREMLIKDQEKKMEDMKKRHHEEIFDLEKEFDEALEQLMYKHGLHNEDD

binding [2]: no binding
B4: RDR2 (yeast two-hybrid fusion) (protein, UniProt O82504 1-1133)
chain: MVSETTTNRSTVKISNVPQTIVADELLRFLELHLGEDTVFALEIPTTRDNWKPRDFARVQFTTLEVKSRAQLLSSQSKLLFKTHNLRLSEAYDDIIPRPVDPRKRLDDIVLTVGFPESDEKRFCALEKWDGVRCWILTEKRRVEFWVWESGDCYKIEVRFEDIIETLSCCVNGDASEIDAFLLKLKYGPKVFKRVTVHIATKFKSDRYRFCKEDFDFMWIRTTDFSGSKSIGTSTCFCLEVHNGSTMLDIFSGLPYYREDTLSLTYVDGKTFASAAQIVPLLNAAILGLEFPYEILFQLNALVHAQKISLFAASDMELIKILRGMSLETALVILKKLHQQSSICYDPVFFVKTQMQSVVKKMKHSPASAYKRLTEQNIMSCQRAYVTPSKIYLLGPELETANYVVKNFAEHVSDFMRVTFVEEDWSKLPANALSVNSKEGYFVKPSRTNIYNRVLSILGEGITVGPKRFEFLAFSASQLRGNSVWMFASNEKVKAEDIREWMGCFRKIRSISKCAARMGQLFSASRQTLIVRAQDVEQIPDIEVTTDGADYCFSDGIGKISLAFAKQVAQKCGLSHVPSAFQIRYGGYKGVIAVDRSSFRKLSLRDSMLKFDSNNRMLNVTRWTESMPCFLNREIICLLSTLGIEDAMFEAMQAVHLSMLGNMLEDRDAALNVLQKLSGENSKNLLVKMLLQGYAPSSEPYLSMMLRVHHESQLSELKSRCRILVPKGRILIGCMDEMGILEYGQVYVRVTLTKAELKSRDQSYFRKIDEETSVVIGKVVVTKNPCLHPGDIRVLDAIYEVHFEEKGYLDCIIFPQKGERPHPNECSGGDLDGDQFFVSWDEKIIPSEMDPPMDYAGSRPRLMDHDVTLEEIHKFFVDYMISDTLGVISTAHLVHADRDPEKARSQKCLELANLHSRAVDFAKTGAPAEMPYALKPREFPDFLERFEKPTYISESVFGKLYRAVKSSLAQRKPEAESEDTVAYDVTLEEAGFESFIETAKAHRDMYGEKLTSLMIYYGAANEEEILTGILKTKEMYLARDNRRYGDMKDRITLSVKDLHKEAMGWFEKSCEDEQQKKKLASAWYYVTYNPNHRDEKLTFLSFPWIVGDVLLDIKAENAQRQSVEEKTSGLVSI

binding [2]: no binding
B6: RDR6 (RNA-dependent RNA polymerase 6, yeast two-hybrid fusion) (protein, UniProt Q9SG02 1-1196)
chain: MGSEGNMKKSVVTQVSIGGFGESTTAKQLTDYLEDEVGIVWRCRLKTSWTPPGSYPNFEIADTSNIPSIDEYKKVEPHAFVHFAVFESAGRAMDAAGQCNLILDGQPLKVSLGPKNPYSLNQRRRTTVPYKLAGITLEIGTLVSRDDFFVSWRAEGVDFLVDPFDNTCKFCFRKSTAFSFKDAVMHAVINCDYKLELLVRDIQTVRQYKTLHGFVLILQLASSPRVWYRTADDDIYDTVPGDLLDDDDPWIRTTDFTQVGAIGRCHSYRVLISPRYENKLRTALDYFRMRRVQEERVRWPPRIRNEPCFGEPVSDHFFCIHHKEGISFEIMFLVNSVLHRGVFNQFQLTERFFDLLRNQPKDVNIASLKHLCTYKRPVFDAYKRLKLVQEWIQKNPKLLGSHEQSEDISEIRRLVITPTRAYCLPPEVELSNRVLRRYKAVAERFLRVTFMDESMQTINSNVLSYFVAPIVKDLTSSSFSQKTYVFKRVKSILTDGFKLCGRKYSFLAFSANQLRDRSAWFFAEDGKTRVSDIKTWMGKFKDKNVAKCAARMGLCFSSTYATVDVMPHEVDTEVPDIERNGYVFSDGIGTITPDLADEVMEKLKLDVHYSPCAYQIRYAGFKGVVARWPSKSDGIRLALRDSMKKFFSKHTILEICSWTRFQPGFLNRQIITLLSVLGVPDEIFWDMQESMLYKLNRILDDTDVAFEVLTASCAEQGNTAAIMLSAGFKPKTEPHLRGMLSSVRIAQLWGLREKSRIFVTSGRWLMGCLDEAGILEHGQCFIQVSKPSIENCFSKHGSRFKETKTDLEVVKGYVAIAKNPCLHPGDVRILEAVDVPQLHHMYDCLIFPQKGDRPHTNEASGSDLDGDLYFVAWDQKLIPPNRKSYPAMHYDAAEEKSLGRAVNHQDIIDFFARNLANEQLGTICNAHVVHADRSEYGAMDEECLLLAELAATAVDFPKTGKIVSMPFHLKPKLYPDFMGKEDYQTYKSNKILGRLYRRVKEVYDEDAEASSEESTDPSAIPYDAVLEIPGFEDLIPEAWGHKCLYDGQLIGLLGQYKVQKEEEIVTGHIWSMPKYTSKKQGELKERLKHSYNSLKKEFRKVFEETIPDHENLSEEEKNILYEKKASAWYHVTYHPEWVKKSLELQDPDESSHAAMLSFAWIAADYLARIKIRSREMGSIDSAKPVDSLAKFLAQRL
